Nine molecules from paper PMC8565353 can be followed below.

The chains behind the UniProt entries cited, without tags or fusion partners.
UniProt Q6P6C2: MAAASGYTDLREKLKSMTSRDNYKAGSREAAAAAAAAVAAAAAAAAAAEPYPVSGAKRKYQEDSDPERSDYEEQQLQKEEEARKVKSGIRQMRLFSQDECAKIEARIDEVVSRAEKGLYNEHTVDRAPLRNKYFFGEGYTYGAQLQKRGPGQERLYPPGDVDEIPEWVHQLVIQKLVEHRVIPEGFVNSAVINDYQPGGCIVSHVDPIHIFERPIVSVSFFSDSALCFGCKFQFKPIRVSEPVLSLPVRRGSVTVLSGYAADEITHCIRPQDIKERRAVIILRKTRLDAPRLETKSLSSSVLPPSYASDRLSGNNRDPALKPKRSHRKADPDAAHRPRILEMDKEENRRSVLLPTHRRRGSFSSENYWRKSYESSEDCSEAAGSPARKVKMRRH

In assay [1] the target is T1, METTL16, C-terminal BirA* fusion (human) (UniProt Q86W50).
T1 sequence: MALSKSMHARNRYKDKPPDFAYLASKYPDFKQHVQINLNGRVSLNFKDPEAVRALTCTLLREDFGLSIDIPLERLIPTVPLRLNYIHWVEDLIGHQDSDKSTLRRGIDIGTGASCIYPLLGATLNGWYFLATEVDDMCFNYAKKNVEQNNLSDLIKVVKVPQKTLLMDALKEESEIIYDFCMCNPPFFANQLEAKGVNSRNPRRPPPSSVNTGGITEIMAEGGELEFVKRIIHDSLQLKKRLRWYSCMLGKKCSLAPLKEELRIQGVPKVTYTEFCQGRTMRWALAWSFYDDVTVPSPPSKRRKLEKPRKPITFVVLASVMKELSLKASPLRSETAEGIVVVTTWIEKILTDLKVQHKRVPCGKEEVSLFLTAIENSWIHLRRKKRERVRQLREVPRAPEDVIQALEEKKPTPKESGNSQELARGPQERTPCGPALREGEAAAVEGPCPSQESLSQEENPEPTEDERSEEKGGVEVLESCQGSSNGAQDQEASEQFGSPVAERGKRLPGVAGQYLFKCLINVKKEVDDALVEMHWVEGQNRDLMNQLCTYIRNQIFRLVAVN
The assay is described as follows: proximity labelling; BioID: BirA*-fused bait induced with 200 ng/ml dox in stable 293T cells, 50 μM biotin for 24 h, streptavidin bead purification of biotinylated proteins, LC-MS/MS; hits filtered by Limma (>4-fold, adjusted P < 0.01) and SAINT (score >0.74) against BirA* and NLS-BirA* controls.

The target in assay [2] is FTO, N-terminal BirA* fusion (human) (UniProt Q9C0B1). Described as above.
Assay [3] addresses ALKBH5, BirA* fusion (human) (UniProt Q6P6C2). Described as above.
The target of assay [4] is ALKBH5-Strep II-HA (human) (UniProt Q6P6C2). In words: affinity purification with mass spectrometry; Strep II-tagged bait captured on StrepTactinXT beads from 293T total lysate, 4 h at 4°C, with RNase inhibitor (-RNase A) or with 2 μg/ml RNase A; washes with 350 mM KCl; LC-MS/MS; against Strep II-eGFP control.

These are yes or no findings as the source states them, for the method shown. In cells and extracts the contact can be indirect. A yes stands for co-enrichment or nearness to the bait. Other partners may have been found. For some assays here: Where a sequence is shown, tags or fusion partners need not be part of it.

B1: TRUB1 (enzyme, UniProt Q8WWH5 1-349)
chain: MAASEAAVVSSPSLKTDTSPVLETAGTVAAMAATPSARAAAAVVAAAARTGSEARVSKAALATKLLSLSGVFAVHKPKGPTSAELLNRLKEKLLAEAGMPSPEWTKRKKQTLKIGHGGTLDSAARGVLVVGIGSGTKMLTSMLSGSKRYTAIGELGKATDTLDSTGRVTEEKPYDKITQEDIEGILQKFTGNIMQVPPLYSALKKDGQRLSTLMKRGEVVEAKPARPVTVYSISLQKFQPPFFTLDVECGGGFYIRSLVSDIGKELSSCANVLELTRTKQGPFTLEEHALPEDKWTIDDIAQSLEHCSSLFPAELALKKSKPESNEQVLSCEYITLNEPKREDDVIKTC
Take B1: the binding entry in assay [1] and in assay [2] was “binds” each time.

B2: DDX49 (protein, UniProt Q9Y6V7 1-483)
chain: MAGFAELGLSSWLVEQCRQLGLKQPTPVQLGCIPAILEGRDCLGCAKTGSGKTAAFVLPILQKLSEDPYGIFCLVLTPTRELAYQIAEQFRVLGKPLGLKDCIIVGGMDMVAQALELSRKPHVVIATPGRLADHLRSSNTFSIKKIRFLVMDEADRLLEQGCTDFTVDLEAILAAVPARRQTLLFSATLTDTLRELQGLATNQPFFWEAQAPVSTVEQLDQRYLLVPEKVKDAYLVHLIQRFQDEHEDWSIIIFTNTCKTCQILCMMLRKFSFPTVALHSMMKQKERFAALAKFKSSIYRILIATDVASRGLDIPTVQVVINHNTPGLPKIYIHRVGRTARAGRQGQAITLVTQYDIHLVHAIEEQIKKKLEEFSVEEAEVLQILTQVNVVRRECEIKLEAAHFDEKKEINKRKQLILEGKDPDLEAKRKAELAKIKQKNRRFKEKVEETLKRQKAGRAGHKGRPPRTPSGSHSGPVPSQGLV
As to B2, in assay [1], the binding entry is recorded as “binds”.

B3: SNRNP27 (protein, UniProt Q8WVK2 1-155)
chain: MGRSRSRSPRRERRRSRSTSRERERRRRERSRSRERDRRRSRSRSPHRRRSRSPRRHRSTSPSPSRLKERRDEEKKETKETKSKERQITEEDLEGKTEEEIEMMKLMGFASFDSTKGKKVDGSVNAYAINVSQKRKYRQYMNRKGGFNRPLDFIA
In the case of B3, the binding entry in assay [1] is “binds”.

B4: DDX47 (protein, UniProt Q9H0S4 1-455)
chain: MAAPEEHDSPTEASQPIVEEEETKTFKDLGVTDVLCEACDQLGWTKPTKIQIEAIPLALQGRDIIGLAETGSGKTGAFALPILNALLETPQRLFALVLTPTRELAFQISEQFEALGSSIGVQSAVIVGGIDSMSQSLALAKKPHIIIATPGRLIDHLENTKGFNLRALKYLVMDEADRILNMDFETEVDKILKVIPRDRKTFLFSATMTKKVQKLQRAALKNPVKCAVSSKYQTVEKLQQYYIFIPSKFKDTYLVYILNELAGNSFMIFCSTCNNTQRTALLLRNLGFTAIPLHGQMSQSKRLGSLNKFKAKARSILLATDVASRGLDIPHVDVVVNFDIPTHSKDYIHRVGRTARAGRSGKAITFVTQYDVELFQRIEHLIGKKLPGFPTQDDEVMMLTERVAEAQRFARMELREHGEKKKRSREDAGDNDDTEGAIGVRNKVAGGKMKKRKGR
Regarding B4, in assay [1], the binding result is “binds”.

B5: MePCE (protein, UniProt Q7L2J0 1-689)
chain: MIEMAAEKEPFLVPAPPPPLKDESGGGGGPTVPPHQEAASGELRGGTERGPGRCAPSAGSPAAAVGRESPGAAATSSSGPQAQQHRGGGPQAQSHGEARLSDPPGRAAPPDVGEERRGGGGTELGPPAPPRPRNGYQPHRPPGGGGGKRRNSCNVGGGGGGFKHPAFKRRRRVNSDCDSVLPSNFLLGGNIFDPLNLNSLLDEEVSRTLNAETPKSSPLPAKGRDPVEILIPKDITDPLSLNTCTDEGHVVLASPLKTGRKRHRHRGQHHQQQQAAGGSESHPVPPTAPLTPLLHGEGASQQPRHRGQNRDAPQPYELNTAINCRDEVVSPLPSALQGPSGSLSAPPAASVISAPPSSSSRHRKRRRTSSKSEAGARGGGQGSKEKGRGSWGGRHHHHHPLPAAGFKKQQRKFQYGNYCKYYGYRNPSCEDGRLRVLKPEWFRGRDVLDLGCNVGHLTLSIACKWGPSRMVGLDIDSRLIHSARQNIRHYLSEELRLPPQTLEGDPGAEGEEGTTTVRKRSCFPASLTASRGPIAAPQVPLDGADTSVFPNNVVFVTGNYVLDRDDLVEAQTPEYDVVLCLSLTKWVHLNWGDEGLKRMFRRIYRHLRPGGILVLEPQPWSSYGKRKTLTETIYKNYYRIQLKPEQFSSYLTSPDVGFSSYELVATPHNTSKGFQRPVYLFHKARSPSH
B5: the binding result in assay [1] was “binds”.

B6: SRSF7 (protein, UniProt Q16629 1-238)
chain: MSRYGRYGGETKVYVGNLGTGAGKGELERAFSYYGPLRTVWIARNPPGFAFVEFEDPRDAEDAVRGLDGKVICGSRVRVELSTGMPRRSRFDRPPARRPFDPNDRCYECGEKGHYAYDCHRYSRRRRSRSRSRSHSRSRGRRYSRSRSRSRGRRSRSASPRRSRSISLRRSRSASLRRSRSGSIKGSRYFQSPSRSRSRSRSISRPRSSRSKSRSPSPKRSRSPSGSPRRSASPERMD
In the case of B6, the binding entry in assay [3] and in assay [4] was “binds” in each case.

B7: ADAT1 (enzyme, UniProt Q9BUB4 1-502)
chain: MWTADEIAQLCYEHYGIRLPKKGKPEPNHEWTLLAAVVKIQSPADKACDTPDKPVQVTKEVVSMGTGTKCIGQSKMRKNGDILNDSHAEVIARRSFQRYLLHQLQLAATLKEDSIFVPGTQKGVWKLRRDLIFVFFSSHTPCGDASIIPMLEFEDQPCCPVFRNWAHNSSVEASSNLEAPGNERKCEDPDSPVTKKMRLEPGTAAREVTNGAAHHQSFGKQKSGPISPGIHSCDLTVEGLATVTRIAPGSAKVIDVYRTGAKCVPGEAGDSGKPGAAFHQVGLLRVKPGRGDRTRSMSCSDKMARWNVLGCQGALLMHLLEEPIYLSAVVIGKCPYSQEAMQRALIGRCQNVSALPKGFGVQELKILQSDLLFEQSRSAVQAKRADSPGRLVPCGAAISWSAVPEQPLDVTANGFPQGTTKKTIGSLQARSQISKVELFRSFQKLLSRIARDKWPHSLRVQKLDTYQEYKEAASSYQEAWSTLRKQVFGSWIRNPPDYHQFK
Turning to B7, in assay [1], the binding entry is given as “binds”.

B8: RRP1 (protein, UniProt P56182 1-461)
chain: MVSRVQLPPEIQLAQRLAGNEQVTRDRAVRKLRKYIVARTQRAAGGFTHDELLKVWKGLFYCMWMQDKPLLQEELGRTISQLVHAFQTTEAQHLFLQAFWQTMNREWTGIDRLRLDKFYMLMRMVLNESLKVLKMQGWEERQIEELLELLMTEILHPSSQAPNGVKSHFIEIFLEELTKVGAEELTADQNLKFIDPFCRIAARTKDSLVLNNITRGIFETIVEQAPLAIEDLLNELDTQDEEVASDSDESSEGGERGDALSQKRSEKPPAGSICRAEPEAGEEQAGDDRDSGGPVLQFDYEAVANRLFEMASRQSTPSQNRKRLYKVIRKLQDLAGGIFPEDEIPEKACRRLLEGRRQKKTKKQKRLLRLQQERGKGEKEPPSPGMERKRSRRRGVGADPEARAEAGEQPGTAERALLRDQPRGRGQRGARQRRRTPRPLTSARAKAANVQEPEKKKKRRE
Regarding B8, the binding entry in assay [1] was “binds”.

B9: LARP7 (protein, UniProt Q4G0J3 1-582)
chain: METESGNQEKVMEEESTEKKKEVEKKKRSRVKQVLADIAKQVDFWFGDANLHKDRFLREQIEKSRDGYVDISLLVSFNKMKKLTTDGKLIARALRSSAVVELDLEGTRIRRKKPLGERPKDEDERTVYVELLPKNVNHSWIERVFGKCGNVVYISIPHYKSTGDPKGFAFVEFETKEQAAKAIEFLNNPPEEAPRKPGIFPKTVKNKPIPALRVVEEKKKKKKKKGRMKKEDNIQAKEENMDTSNTSISKMKRSRPTSEGSDIESTEPQKQCSKKKKKRDRVEASSLPEVRTGKRKRSSSEDAESLAPRSKVKKIIQKDIIKEASEASKENRDIEISTEEEKDTGDLKDSSLLKTKRKHKKKHKERHKMGEEVIPLRVLSKSEWMDLKKEYLALQKASMASLKKTISQIKSESEMETDSGVPQNTGMKNEKTANREECRTQEKVNATGPQFVSGVIVKIISTEPLPGRKQVRDTLAAISEVLYVDLLEGDTECHARFKTPEDAQAVINAYTEINKKHCWKLEILSGDHEQRYWQKILVDRQAKLNQPREKKRGTEKLITKAEKIRLAKTQQASKHIRFSEYD
Take B9: in assay [1], the binding result is “binds”.
